From paper PMC3476979
Results are given in words; binding and its absence hold for the method and conditions named. Binding seen in cells or lysates may run through a third protein. Some binding calls cover weakened binding; strength is not graded here.

Molecular target: wild-type Tax protein of Human T-lymphotropic virus type 1 (HTLV-1), C-terminal 6His tag (Tax-His) (Human T-lymphotropic virus type 1 (HTLV-1)) (UniProt P03409)
Test: co-IP; HeLa cells transfected with Tax-His constructs, 24 h; lysis in 50 mM Tris-HCl pH8, 1% NP40, 0.5% deoxycholate, 0.1% SDS, 150 mM NaCl; IP with the anti-Tax mab overnight at 4°C, protein G-sepharose; blot with anti-NEMO

NF-κB essential modulator (NEMO)/IKKγ, endogenous (from UniProt Q9Y6K9 1-419)
binding: binds
